In article PMC7862700:
Only a part is listed here, and it is no random draw. Some of the results follow. For some assays here: The source does not settle which construct or isoform was used.

Protein sequences, listed by entry. Tags and fused reporters are not part of them. Lines headed by an entry give the natural chain unless they say otherwise; changes in a name come on top.
UniProt P50549: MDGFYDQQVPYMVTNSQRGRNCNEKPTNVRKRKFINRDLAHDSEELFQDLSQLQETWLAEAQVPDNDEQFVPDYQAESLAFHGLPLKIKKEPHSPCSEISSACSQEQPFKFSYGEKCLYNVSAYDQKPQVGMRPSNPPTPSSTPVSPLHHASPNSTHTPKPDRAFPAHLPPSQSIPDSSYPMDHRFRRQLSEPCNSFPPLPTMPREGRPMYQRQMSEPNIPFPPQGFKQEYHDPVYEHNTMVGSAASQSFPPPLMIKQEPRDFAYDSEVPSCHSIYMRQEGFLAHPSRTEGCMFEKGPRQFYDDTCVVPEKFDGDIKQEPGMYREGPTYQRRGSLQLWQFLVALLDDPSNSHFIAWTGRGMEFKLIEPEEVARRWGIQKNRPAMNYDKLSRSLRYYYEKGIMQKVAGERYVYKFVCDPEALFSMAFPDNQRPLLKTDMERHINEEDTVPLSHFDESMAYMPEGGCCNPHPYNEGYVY

What was measured:
ETV4 = target: T1, ETV4 (UniProt P43268); assay: DAPPL (digital affinity profiling via proximity ligation, sequencing); details: 10 mM Tris-HCl pH 7.5, 50 mM NaCl, 1 mM DTT, 4% glycerol, room temperature, 30 min; GST-TFs on glutathione beads, 16-mer random dsDNA library, 0.1% …; high values mean tight binding; double strand, one strand shown; scale: fold enrichment (6-mer frequency, TF over GST control)
T1 sequence: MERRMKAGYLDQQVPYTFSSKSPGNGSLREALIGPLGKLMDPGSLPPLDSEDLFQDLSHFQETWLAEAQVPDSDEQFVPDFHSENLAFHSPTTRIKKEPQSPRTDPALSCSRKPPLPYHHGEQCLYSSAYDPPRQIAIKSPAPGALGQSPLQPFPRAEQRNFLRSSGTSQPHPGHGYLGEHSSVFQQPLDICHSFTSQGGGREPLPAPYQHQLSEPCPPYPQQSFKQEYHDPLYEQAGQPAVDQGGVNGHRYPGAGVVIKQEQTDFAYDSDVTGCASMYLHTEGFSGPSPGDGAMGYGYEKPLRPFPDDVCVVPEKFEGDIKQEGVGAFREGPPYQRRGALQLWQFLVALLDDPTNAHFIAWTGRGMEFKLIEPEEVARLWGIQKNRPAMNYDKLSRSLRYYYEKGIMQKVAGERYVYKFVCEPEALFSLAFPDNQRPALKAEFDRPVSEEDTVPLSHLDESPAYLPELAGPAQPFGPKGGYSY

ETV1 = ETV1 (UniProt P50549); assay: as above; details: 10 mM Tris-HCl pH 7.5, 50 mM NaCl, 1 mM DTT, 4% glycerol, room temperature, 30 min; GST-TFs on glutathione beads, 16-mer random dsDNA library, 0.1% …; high values mean tight binding; double strand, one strand shown; scale: fold enrichment (6-mer frequency, TF over GST control)

| Sequence | binding signal (ETV4) | binding signal (ETV1) |
| --- | --- | --- |
| AGTATC | 1.07 | 1.07 |
| AGCTAA | 1.15 | 1.1 |
| TACATC | 1.79 | 1.64 |
| AACTTA | 1.24 | 1.22 |
| CCATTG | 1.26 | 1.05 |
| ATATGA | 1.13 | 1.05 |
| TTACCG | 1.12 | 1.14 |
| ATACAA | 1.19 | 1.13 |
| TACTTT | 1.34 | 1.39 |
| CTTCAA | 1.33 | 1.36 |

Record cards, as listed above. Order of values: binding signal (ETV4)	binding signal (ETV1)
AACTTA in the list: 1.24	1.22
AGCTAA in the list: 1.15	1.1
